Measurements published in PMC7819943, “Rice protein-binding microarrays: a tool to detect cis-acting elements near promoter regions in rice”.
The list shows a part of the results.

The chains behind the UniProt entries cited, without tags or fusion partners.
UniProt Q0JBA9, entry or part of it: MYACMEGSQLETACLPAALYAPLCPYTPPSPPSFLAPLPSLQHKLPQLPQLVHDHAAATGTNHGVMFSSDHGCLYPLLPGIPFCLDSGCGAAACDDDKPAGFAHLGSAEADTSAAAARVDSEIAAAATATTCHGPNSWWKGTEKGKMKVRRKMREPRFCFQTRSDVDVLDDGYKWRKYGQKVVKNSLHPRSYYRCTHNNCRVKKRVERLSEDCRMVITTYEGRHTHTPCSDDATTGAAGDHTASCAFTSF

The sequences below were run against OsWRKY34 (Oryza sativa, UniProt Q0JBA9 1-250) (assay: protein-binding microarray (RPBM); PBS, 2% BSA, 51.3 ng/ul salmon testes DNA, 50 uM zinc acetate, 200 nM TF, 25 C, 1 h; high values mean tight binding). Conditions: protein: recombinant; tags: N-terminal polyhistidine and DsRed monomer fusion (pET32a); label: CyDye5-dUTP incorporated in the synthesized complementary strand; 3' TTTTT single-stranded linker to array surface; dsDNA, one strand shown.
Procedure, shortened: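 Ni–NTA purification followed expression in E. coli BL21-CodonPlus of transcription factors fused N-terminally to a polyhistidine tag and DsRed. At 200 nM in PBS with 2% BSA, salmon testes DNA and 50 µM zinc acetate, the protein was incubated for 1 h at 25 °C with a custom Agilent array that had been primer-extended with Cy5-dUTP and blocked with 2% BSA. After washing, the array was read on an Axon 4000B scanner. The binding signal is per-feature fluorescence intensity in arbitrary units.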

Sequence | binding signal
TGCACTACCAACCTTTTCTGCATCTTGCTTATATTTTTGCCGGAGTCACCTAGTGCAG | 9420 fluorescence intensity (a.u.)
CCACCTGCTCTTGGTCCCACTCATGGCCCCACACTACTATCGGAGTCACCTAGTGCAG | 8950 fluorescence intensity (a.u.)
CCCAACCCAACCGCCGCCACCACTCACCGGCGCAACCACCCGGAGTCACCTAGTGCAG | 8780 fluorescence intensity (a.u.)
GGTGAGGTGGTGGTGGTGGTGGTCGGGAAGTGGCGGCGCCCGGAGTCACCTAGTGCAG | 16100 fluorescence intensity (a.u.)
CAACTTTTCTACATTGCAATCAATTAATTTAGCTCTACAACGGAGTCACCTAGTGCAG | 9460 fluorescence intensity (a.u.)
CACAAAGGCGCACGGGAGGGAGGGAGGGACGAAAAGAGATCGGAGTCACCTAGTGCAG | 9590 fluorescence intensity (a.u.)
TAAGGGATTTTGACATTTTACTTGTACTGTTTGACCATTCCGGAGTCACCTAGTGCAG | 10400 fluorescence intensity (a.u.)
CGACAAAATTCAACCGTAATTTCAACGTTTTCCTAACTTTCGGAGTCACCTAGTGCAG | 8990 fluorescence intensity (a.u.)
CTCACCCACAGCGTCTTCGTTACCACTGCGCATCCACCACCGGAGTCACCTAGTGCAG | 8730 fluorescence intensity (a.u.)
ATCCAACACACGCAGATCACAAGTTGCAACTTTGCGGGCCCGGAGTCACCTAGTGCAG | 8160 fluorescence intensity (a.u.)
CGATGTGTTGTGTGCTGCTGCAAATTATCATATTGTTCATCGGAGTCACCTAGTGCAG | 8260 fluorescence intensity (a.u.)
GCTGGGTTTGTGGGTTTTCTCATAAGTTTAATCTCTATATCGGAGTCACCTAGTGCAG | 17400 fluorescence intensity (a.u.)
GTAATTAGGGAAGGGATATTATATTTGTTTTGGTGGAAGTCGGAGTCACCTAGTGCAG | 8420 fluorescence intensity (a.u.)
CCGTTTCTACTCACCCAAGCCGCCACCGCACTTCGCACCCCGGAGTCACCTAGTGCAG | 8630 fluorescence intensity (a.u.)
ATACATGCATATATCTAACTATCCATTTTTGTTTTCAGCCCGGAGTCACCTAGTGCAG | 8590 fluorescence intensity (a.u.)
ATTCGTTTCGTATTTATGCCCGATATTATCCGTGCTTCTACGGAGTCACCTAGTGCAG | 9200 fluorescence intensity (a.u.)
GGCCTTCATGGAGCTCCTCCCTTTCTTTGCGGGGAGTTTACGGAGTCACCTAGTGCAG | 8580 fluorescence intensity (a.u.)
TGTTTGTTATTCCACGCTTCGTTTTTTTTTTTTTGAATTACGGAGTCACCTAGTGCAG | 9500 fluorescence intensity (a.u.)
CAAATAGACACTTATAACATGCGCACTTTTATCCCTACAACGGAGTCACCTAGTGCAG | 8130 fluorescence intensity (a.u.)
CAAAACTGTGGTATGGGCCGGGGTGGGGCGGCGCGGGCCACGGAGTCACCTAGTGCAG | 13800 fluorescence intensity (a.u.)
ACCATTGATTTTTCAGTACGTGTTTGACCATTCGTCTTATCGGAGTCACCTAGTGCAG | 13300 fluorescence intensity (a.u.)

Sequence | binding signal
TTTAGTAAGAAGGTTTTTCTCTGTTTCTCTTTCTCTCTCTCGGAGTCACCTAGTGCAG | 11200 fluorescence intensity (a.u.)
ACGGTTTGGATGGTGATTTGAGCTAATGTGGCGTTGACATCGGAGTCACCTAGTGCAG | 10200 fluorescence intensity (a.u.)
ACGTCCATCCGTTTCTTGCATGCCACCTAAATGATTATGACGGAGTCACCTAGTGCAG | 12900 fluorescence intensity (a.u.)
GAGTCGACCGTTGCTGTGGGCCCCACCCCTCACCGCCGGACGGAGTCACCTAGTGCAG | 10400 fluorescence intensity (a.u.)
GATCCGATTGCACTATTAAATTTGTTGCAATTAAATCTTCCGGAGTCACCTAGTGCAG | 8560 fluorescence intensity (a.u.)
GTTTTCTCTTATATATCTGCGCGTGAGTTGTGTGCTGAATCGGAGTCACCTAGTGCAG | 10700 fluorescence intensity (a.u.)
GCCACCCTCGCCGTGCATCCCCAATCCCTACAGTGAAGGCCGGAGTCACCTAGTGCAG | 8280 fluorescence intensity (a.u.)
GGAAACCTGCTCCCATCTACTCCACGGCCTCACTCACTGCCGGAGTCACCTAGTGCAG | 8710 fluorescence intensity (a.u.)
GGGGAGACATCTCAAACTCAGAGTGACATTTGGGGTGGTTCGGAGTCACCTAGTGCAG | 9220 fluorescence intensity (a.u.)
CGCGTACGGGTATCCAACCAGCGTCCTCTGCATCGATCTCCGGAGTCACCTAGTGCAG | 9540 fluorescence intensity (a.u.)
TTCTCTCTGATGGTTGCATCACTTGCACTGCTCTGAGTTTCGGAGTCACCTAGTGCAG | 8800 fluorescence intensity (a.u.)
CGGTGGTGTTGTCCCCGTGTCCTACTTCTTGTCCCAATGACGGAGTCACCTAGTGCAG | 10000 fluorescence intensity (a.u.)
TGACTTTCTTTACGACCTCTCTCTCACATCTCACCTCGTGCGGAGTCACCTAGTGCAG | 8290 fluorescence intensity (a.u.)
CGTTTTTTAAGAGGCAATGTTGTTGACTTTTGGATACATGCGGAGTCACCTAGTGCAG | 8300 fluorescence intensity (a.u.)
TTTGAGGCTAAAACCCTACTTATCCTTCTCCAATTATCTTCGGAGTCACCTAGTGCAG | 8990 fluorescence intensity (a.u.)
AGATGCTCCCTGTTCCATCCTCCACGAATTTCCTTTGCCTCGGAGTCACCTAGTGCAG | 8250 fluorescence intensity (a.u.)
CTTAAACTGGCATGACTTGTGTGTTTCTTTCCTTTTTCCTCGGAGTCACCTAGTGCAG | 10700 fluorescence intensity (a.u.)
CATGCAGTATAAAAACACACTGCTGACTTTGTTTGACTATCGGAGTCACCTAGTGCAG | 10200 fluorescence intensity (a.u.)
CACTTTAAGACTGTGTTTGTTCAAGTGGGTTGGGAACTCACGGAGTCACCTAGTGCAG | 9900 fluorescence intensity (a.u.)
ATATTTCTGTCGCGGAGGGGCTTTTTTGCAAAATAGGAAACGGAGTCACCTAGTGCAG | 10900 fluorescence intensity (a.u.)
CCATCACACTCACTGCCTCTTGTGCCACTCTCTCGCTTGCCGGAGTCACCTAGTGCAG | 9770 fluorescence intensity (a.u.)

Laid out differently: entries from further up.
ACGTCCATCCGTTTCTTGCATGCCACCTAAATGATTATGACGGAGTCACCTAGTGCAG
  binding signal: 12900 fluorescence intensity (a.u.)
GGGGAGACATCTCAAACTCAGAGTGACATTTGGGGTGGTTCGGAGTCACCTAGTGCAG
  binding signal: 9220 fluorescence intensity (a.u.)
TGACTTTCTTTACGACCTCTCTCTCACATCTCACCTCGTGCGGAGTCACCTAGTGCAG
  binding signal: 8290 fluorescence intensity (a.u.)
